These are yes or no findings as the source states them, for the method shown. Some entries that bind do so weakly or less than the wild type.
B1: clonotype 343 (EPOR/CD131 binders, Table 8) (antibody, V domains shown)
VH: QVQLVQSGAEVKKPGASVKVSCKASGYTFTSYGISWVRQAPGQGLEWMGWISAYNGNTNYAQKLQGRVTMTTDTSTSTAYMELRSLRSDDTAVYYCARQLAYCGGDCYLYFDYWGQGTLVTVSS
VL: QSALTQPPSASGSPGQSVTISCTGTSSDVGGYNYVSWYQQHPGKAPKLMIYEVSKRPSGVPDRFSGSKSGNTASLTVSGLQAEDEADYYCSSYAGSNNLVFGGGTKLTVL
B2: clonotype 341 (EPOR/CD131 binders, Table 8) (antibody, V domains shown)
VH: QVHLVESGGGVVQPGRSLRLSCAASGFTFSSYGMHWVRQAPGKGLEWVAIIWYDGSNEYYADSVKGRFTISRDNSKNTLYLQMNTLRAEDTAVYYCAGAYYYDSSGYLNYMDVWGKGTTVTVSS
VL: SYVLIQPPSVSVAPGKTARITCGGNNIGGKSVHWYQLKPGQAPVLVICYNRDRPSGIPERFSGSNSGNTATLTISRVEAGDEADYYCQVWDSSSDHPVFGGGTKLTVL
B3: clonotype 308 (EPOR/CD131 binders, Table 8) (antibody, V domains shown)
VH: EVQLVESGGGVVRPGGSLRLSCAASGFTFDDYGMSWVRQAPGKGLEWVSGINWNGGSTGYADSVKGRFTISRDNAKNSLYLQMNSLRAEDTALYYCARHFDWLLSNAFDIWGQGTMVTVSS
VL: QAVLTQPASLSASPGASASLTCTLRSGINVGTYRIYWYQQKPGSPPQYLLRYKSDSDKQQGSGVPSRFSGSKDASANAGILLISGLQSEDEADYYCMIWHSSASVVFGGGTKLTVL
B4: clonotype 342 (EPOR/CD131 binders, Table 8) (antibody, V domains shown)
VH: EVQLVESGGGLVKPGGSLRLSCAASGFTFRNAWMSWVRQAPGKGLEWVGRIKTKTDGGATQYAAPVKGRFTISRDDSKNTLYLQMNSLKTEDTAVYYCTTDHIEYSSLYYFDYWGQGTLVTVSS
VL: QSVLTQSPSASGTPGQRVTISCSGSNSNIGFNTVNWYQQLPGTAPKLLIDSNNQRPSGVPDRFSGSTSGTSASLAISGLQSEDEADYYCSSYAGSNNFVFGTGTKVTVL
B5: clonotype 309 (EPOR/CD131 binders, Table 8) (antibody, V domains shown)
VH: QVQLVQSGAEVKKPGASVKVSCKASGYTFTSYDINWVRQATGQGLEWMGWMNPNSGNTGYAQKFQGRVTMTRNTSISTAYMELSSLRSEDTAVYYCVRRITVVRGVISLDYWGQGTLVTVSS
VL: SYELTQPPSVSVSPGQTAIITCSGAKLGDKYACWYQKKPGQSPVMVIYQDRKRPSGIPERFSGSNSGNTATLTISGTQAMDEADYYCQAWDSSTAVFGGGTKLTVL
B6: clonotype 349 (EPOR/CD131 binders, Table 8) (antibody, V domains shown)
VH: EVQLVESGGGLVKPGGSLKLSCAASGFTFSSYSMNWVRQAPGKGLEWVSSISSSSSYIYYADSVKGRFTISRDNAKNSLYLQMNSLRAEDTAVYYCARDGRITMVRGVRNWFDPWGQGTLVTVSS
VL: SYELTQPPSVSVSPGQTANITCSGDKLGNKYACWYQQKPGQSPVLVIFQDNKRPSGIPERFSGSNSGNTATLTIGGTQAMDEADYYCQAWDSSTVVFGGGTKVTVL
B7: clonotype 304 (EPOR/CD131 binders, Table 8) (antibody, V domains shown)
VH: EVQLVESGGGLVKPGGSLRLSCAASGFTFSRYSMNWVRQAPGKGLEWVSSIISSTSYIYYADSVKGRFTISRDNAKNSLYLQMNSLRAEDTAVYYCARETPVTLFDAFDIWGQGTMVTVSS
VL: QSVLTQPPSVSGAPGQRVTISCTGSSSNIGARYDVHWYQLLPGSAPKLLIYDNSDRPSGVPDRFSGSRSGTSASLAITGLQAEDEADYFCQSYDSSLSGSVFGGGTKLTVL
B8: clonotype 326 (EPOR/CD131 binders, Table 8) (antibody, V domains shown)
VH: EVQLVESGGGLVQPGGSLRLSCAASGFTFSSYSMNWVRQAPGKGLEWVSYISSSSSTIYYADSVKGRFTISRDNAKNSLYLQMNSLRDEDTAVYYCARTYYYGSGSYYTLDYWGQGTLVTVSS
VL: QSVLTQPPSVSGAPGQRVTISCTGSSSNIGAGYDVHWYQQLPGTAPKLLIYGNSNRPSGVPDRFSGSKSGTSASLAITGLQAEDEADYYCQSYDSSLSGVVFGGGTKLTVL
B9: clonotype 305 (EPOR/CD131 binders, Table 8) (antibody, V domains shown)
VH: EVHLVESGGGLVQPGRSLRLSCAASGFTFDEYAMHWVRQVPGKGLEWVSGISWNSGSIGYADSVKGRFTISRDNAKNSLYLQMNSLRAEDTALYYCAKDIFTGRAGYFDYWGQGTLVTVSS
VL: QSVLTQPPSVSGAPGQRVTISCTGSSSNIGAGYDVHWYQQLPGTAPKLLIYGNSNRPSGVPDRFSGSKSGTSASLAITGLQAEDEADYYCQSYDSSLSGWVFGGGTKLTVL
B10: clonotype 302 (EPOR/CD131 binders, Table 8) (antibody, V domains shown)
VH: QVQLVQSGAEVKKPGASVKVSCKASGYTFTSYGITWVRQAPGQGLEWMGWISAYNGNTHYAQKLQGRVTMTTDTSTSTAYMDLRSLRSDDTAVYYCARTIFGVVNNWFDPWGQGTLVTVSS
VL: QSVLSQPPSVSEAPRQRVTISCSGSSSNIGYNAVNWYQQLPGKAPKLLISHDDLLPSGVSDRFSGSKSGTSASLAISGLQSDDEADYYCAAWDARLNGWVFGGGTKLTVL
B11: clonotype 294 (EPOR/CD131 binders, Table 8) (antibody, V domains shown)
VH: EVQLVESGGGLVKPGGSLRLSCAASGFTFSSYSMNWVRQAPGKGLEWVSSISSSSSYIYYADSVKGRFTISRDNAKNSLYLQMNSLRAEDTAVYYCARDRYNWNYRYFDLWGRGTLVTVSS
VL: SSELTQDPAVSVALGQTVRITCQGDSLRSYYASWYQQKPGQAPVLVIYGKNNRPSGIPDRFSGSSSGNTASLTITGAQAEDEADYYCNSRDSSGNHLVFGGGTKLTVL
B12: clonotype 333 (EPOR/CD131 binders, Table 8) (antibody, V domains shown)
VH: EVQLVESGGGLVQPGGSLRLSCAASGFTFSSYWMSWVRQAPGKGLEWVANIKQDGSEKYYVDSVKGRFTISRDNAKNSLYLQMNSLRAEDTAVYYCAREGVLWFGEFYYYMDVWGKGTTVTVSS
VL: SSELTQDPAVSVALGQTVRITCQGDSLRRYYASWYQQKPGQAPVLVIYGKNNRPSGIPDRFSGSSSGNTASLTITGAQAEDEADYYCNSRDSSGNHLVFGGGTKLTVL
B13: clonotype 296 (EPOR/CD131 binders, Table 8) (antibody, V domains shown)
VH: QVQLVQSGAEVKKPGASVKVSCKASGYTFTSYGISWVRQAPGQGLEWMGWISAYNGNTNYAQKLQGRVTMTTDTSTSTAYMELRSLRSDDTAVYYCARDGAARPPRYMDVWGKGTTVTVSS
VL: SSELTQDPAVSVALGQTVRITCQGDSLRSYYASWYQQKPGQAPVLVIYGKNNRPSGIPDRFSGSSSGNTASLTITGAQAEDEADYYCNSRDSSGNHLVFGGGTKLTVL
B14: clonotype 301 (EPOR/CD131 binders, Table 8) (antibody, V domains shown)
VH: QVQLQQSGPGLVKPSQTLSLTCAISGDNVSSNSAAWNWIRQSPSRGLEWLGRTYYRSKWYNDYAVSVKSRITINPDTSKNQFSLHLNSVTPEDTALYYCARDWNFAFDIWGQGTMVTVSS
VL: SSELTQDPAVSVALGQTVRITCQGDSLRSYYASWYQQKPGQAPVLVIYGKNNRPSGIPDRFSGSSSGNTASLTITGAQAEDEADYYCNSRDSSGNHLVFGGGTKLTVL
B15: clonotype 298 (EPOR/CD131 binders, Table 8) (antibody, V domains shown)
VH: QVQLVQSGSEVKKPGASVKVSCKASGYTFTGYYMYWVRQAPGQGLEWMGWINPNSGGTNYAQKFQDRVTMTRDTSISTAYMELSRLRSDDTAIYYCARDLDYYGSGNYDYWGQGTLVTVSS
VL: SSELTQDPAVSVALGQTVRITCQGDSLRSYYASWYQQKPGQAPVLVIYGKNNRPSGIPDRFSGSSSGNTASLTITGAQAEDEADYYCNSRDSSDNHRVFGGGTKLTVL
B16: clonotype 319 (EPOR/CD131 binders, Table 8) (antibody, V domains shown)
VH: EVQLVESGGGLVKPGGSLRLSCAASGFTFSTYSMNWVRQAPGKGLEWVSSISSSSTYIYYADSVKGRFTISRDNAKNSLYLQMNSLRADDTAVYYCARDPPLSGSYAGEFDYWGQGTLVTVSS
VL: SSELTQDPAVSVALGQTVRITCQGDSLRSYYASWYQQKPGQAPVLVIYGKNNRPSGIPDRFSGSSSGNTASLTITGAQAEDEADYYCNSRDSSGNHWVFGGGTKLTVL
B17: clonotype 300 (EPOR/CD131 binders, Table 8) (antibody, V domains shown)
VH: EVQLVESGGGLVQPGGSLRLSCAASGFTFSSYWMHWVRQAPGKGLVWVSRVNSDGSNTTYADSVKGRFTISRDNAKNTLYLQMNSLRAEDTAVYYCARNRDYHGSGSFDYWGQGTLVTVSS
VL: SSELTQDPAVSVALGQTVRITCQGDSLRSYYASWYQQKPGQAPVLVIYGQNNRPSGIPDRFSGSSSGNTASLTITGAQAEDEADYYCNSRDSSGNHWVFGGGTKLTVL
B18: clonotype 345 (EPOR/CD131 binders, Table 8) (antibody, V domains shown)
VH: QVQLQQSGPGLVKPSQTLSLTCAISGDSVSSNSAAWNWIRQSPSRGLEWLGRTYYRSKWYNDYAVSVKSRITINPDTSKNQFSLQLNSVTPEDTAVYYCAREAYWNYGGFDYWGQGTLVTVSS
VL: QSALTQPPSASGSPGQSVTISCTGTSSDVGGYNYVSWYQQHPGKAPKLMIYEVSKRPSGVPDRFSGSKSGNTASLTVSGLQAEDEADYYCSSYAGSNNFGVFGGGTKLTVL
B19: clonotype 316 (EPOR/CD131 binders, Table 8) (antibody, V domains shown)
VH: EVQLVESGGGLVQPGGSLRLSCAASGFTFSSYWMSWVRQAPGKGLEWVANIKQDGSEKYYVDSVKGRFTISRDNAKNSLYLQMNSLRAEDTAVYYCARDDTIFGVVTDAFDIWGQGTMVTVSS
VL: SSELTQDPAVSVALGQTVRITCQGDSLRSYYASWYQQKPGQAPVLVIYGKNNRPSGIPDRFSGSSSGNTASLTITGAQAEDEADYYCNSRDSSGNLFGGGTKLTVL
B20: clonotype 307 (EPOR/CD131 binders, Table 8) (antibody, V domains shown)
VH: QITLKESGPTLVKPTQTLTLTCTFSGFSISTSGVGVGWIRQPPGKALEWLAFIFWNDDKRYSPSLKSRLTITKDTSKNQVVLTMTNMDPVDTATYYCTHTEYGSSWSVDYWGQGTLVTVSS
VL: QAVLTQPASLSASPGASASLTCTLRSGINVGTSRIYWYQQKPGSPPQYLLRYKSDSDKHQDSGVPSRFSGSKDASANAGILLISGLQSEDEADYYCMIWHSSAVVFGGGTKLTVL
B21: clonotype 327 (EPOR/CD131 binders, Table 8) (antibody, V domains shown)
VH: QVQLVQSGAEVKKPGASVKVSCKASGYTFTSYDINWVRQATGQGLEWMGWMNPNSGNTGYAQKFQGRVTMTRNTSISTAYMELSSLRSEDTAVYYCARGGITIFGVVTPFDYWGQGTLVTVSS
VL: QAVLTQPASLSASPGASASLTCTLRSGINVGTYRIYWYQQKPGSPPQYLLRYKSDSDKQQGSGVPSRFSGSKDASANAGILLISGLQSEDEADYYCMIWHSSAWVFGGGTKLTVL

Chains of the proteins cited; added tags and fusions are not shown. Residues count along the entry.
UniProt P32927, residues 17-443: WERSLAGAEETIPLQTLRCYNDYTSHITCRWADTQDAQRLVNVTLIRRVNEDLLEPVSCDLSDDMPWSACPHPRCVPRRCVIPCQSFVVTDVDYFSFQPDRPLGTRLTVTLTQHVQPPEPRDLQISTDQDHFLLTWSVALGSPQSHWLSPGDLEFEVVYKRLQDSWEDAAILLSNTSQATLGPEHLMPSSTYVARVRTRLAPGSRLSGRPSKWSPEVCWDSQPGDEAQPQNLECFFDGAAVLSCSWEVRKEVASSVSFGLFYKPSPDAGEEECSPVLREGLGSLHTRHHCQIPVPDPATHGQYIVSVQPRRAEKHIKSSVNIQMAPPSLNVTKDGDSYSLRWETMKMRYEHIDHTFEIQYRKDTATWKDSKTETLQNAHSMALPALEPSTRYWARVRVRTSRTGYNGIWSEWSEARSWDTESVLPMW

Each binder was assayed against hCD131-Fc (IME021, in house) (human) (UniProt P32927) (assay: B-cell sorting with labelled hEPOR-Fc and hCD131-Fc, double-positive population).

binding, binds:
B1, B2, B3, B4, B5, B6, B7, B8, B9, B10, B11, B12, B13, B14, B15, B16, B17, B18, B19, B20, B21

Source: patent publication US20250388687A1
